# Measured values: PMC3686747
# The chains behind the UniProt entries cited, without tags or fusion partners. Residues count along the entry.
# UniProt P61604: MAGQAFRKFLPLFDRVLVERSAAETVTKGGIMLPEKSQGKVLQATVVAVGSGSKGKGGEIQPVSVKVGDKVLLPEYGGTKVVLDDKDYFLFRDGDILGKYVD
# UniProt P10809, residues 27-573: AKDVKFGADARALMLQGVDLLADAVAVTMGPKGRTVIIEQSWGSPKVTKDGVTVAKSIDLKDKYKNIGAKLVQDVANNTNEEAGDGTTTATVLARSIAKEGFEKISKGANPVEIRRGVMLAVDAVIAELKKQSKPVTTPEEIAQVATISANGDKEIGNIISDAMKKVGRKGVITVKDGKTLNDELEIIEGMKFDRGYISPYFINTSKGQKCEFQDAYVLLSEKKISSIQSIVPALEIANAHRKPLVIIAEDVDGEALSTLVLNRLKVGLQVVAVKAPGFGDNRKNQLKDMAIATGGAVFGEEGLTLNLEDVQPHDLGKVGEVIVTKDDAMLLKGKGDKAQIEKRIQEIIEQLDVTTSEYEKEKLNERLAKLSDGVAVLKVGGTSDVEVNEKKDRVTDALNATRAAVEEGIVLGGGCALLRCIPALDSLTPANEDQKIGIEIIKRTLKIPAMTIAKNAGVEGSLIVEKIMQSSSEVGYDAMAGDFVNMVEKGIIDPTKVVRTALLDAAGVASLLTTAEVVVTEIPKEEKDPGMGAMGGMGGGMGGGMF
# UniProt P63039, residues 27-573: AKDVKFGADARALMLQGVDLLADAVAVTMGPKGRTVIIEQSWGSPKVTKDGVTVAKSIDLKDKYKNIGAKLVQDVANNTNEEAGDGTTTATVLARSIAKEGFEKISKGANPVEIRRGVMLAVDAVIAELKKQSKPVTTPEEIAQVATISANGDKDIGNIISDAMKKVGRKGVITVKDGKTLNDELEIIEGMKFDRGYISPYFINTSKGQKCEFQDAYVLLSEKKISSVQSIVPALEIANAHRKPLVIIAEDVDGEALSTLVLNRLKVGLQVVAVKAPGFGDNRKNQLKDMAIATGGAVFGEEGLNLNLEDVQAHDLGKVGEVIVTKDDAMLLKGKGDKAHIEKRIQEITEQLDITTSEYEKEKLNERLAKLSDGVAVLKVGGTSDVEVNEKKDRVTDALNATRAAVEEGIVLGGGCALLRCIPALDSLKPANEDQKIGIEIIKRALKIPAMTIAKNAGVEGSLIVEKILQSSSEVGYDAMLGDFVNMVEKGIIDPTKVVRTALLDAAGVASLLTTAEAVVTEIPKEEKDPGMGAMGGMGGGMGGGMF
# No constants are given. Whether binding was seen depends on the method and setting. In cells and extracts the contact can be indirect. Some results given as binding are weak or reduced against the parent protein; the word gives no strength.
# T1: N-SMase2 overexpressed in HEK293 cells (pRC/N-SMase2) (UniProt Q9JJY3)
# T1 sequence: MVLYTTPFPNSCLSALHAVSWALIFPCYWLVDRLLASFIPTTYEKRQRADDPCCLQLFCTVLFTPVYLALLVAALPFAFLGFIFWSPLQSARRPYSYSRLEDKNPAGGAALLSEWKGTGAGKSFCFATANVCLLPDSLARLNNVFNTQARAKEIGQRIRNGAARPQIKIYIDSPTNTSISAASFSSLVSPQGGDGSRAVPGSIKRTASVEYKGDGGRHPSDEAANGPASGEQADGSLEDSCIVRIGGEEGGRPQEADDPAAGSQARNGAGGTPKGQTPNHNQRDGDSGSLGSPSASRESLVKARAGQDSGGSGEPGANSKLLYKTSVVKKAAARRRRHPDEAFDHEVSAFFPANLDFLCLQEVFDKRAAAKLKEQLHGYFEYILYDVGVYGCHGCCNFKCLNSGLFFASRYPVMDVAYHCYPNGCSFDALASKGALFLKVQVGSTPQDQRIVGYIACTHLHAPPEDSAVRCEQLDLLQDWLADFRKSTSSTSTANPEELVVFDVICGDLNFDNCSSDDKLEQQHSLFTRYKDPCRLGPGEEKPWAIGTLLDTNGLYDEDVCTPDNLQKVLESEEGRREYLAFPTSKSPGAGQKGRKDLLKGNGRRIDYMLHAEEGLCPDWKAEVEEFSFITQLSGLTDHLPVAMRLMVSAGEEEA
# Experiments:
# [1] = target: T1, N-SMase2 overexpressed in HEK293 cells (pRC/N-SMase2); experiment: cross-linking + co-IP; HEK293 cells transfected with N-SMase2, treated with 2 mM DSP on ice for 1 h, solubilized in 25 mM Tris-HCl pH 7.5, 2 mM EDTA, 0.1% Triton X-100, 137 mM NaCl; immunoprecipitates immunoblotted
# [2] = target: T1, N-SMase2 overexpressed in HEK293 cells (pRC/N-SMase2); experiment: proximity ligation; fixed, permeabilized HEK293 cells transfected with N-SMase2; mouse anti-N-SMase2 and goat anti-Hsp60, Duolink In Situ kit, confocal microscopy
# [3] = target: Hsp10, endogenous in HEK293 cells (human (endogenous in HEK293)) (UniProt P61604); experiment: cross-linking + co-IP; HEK293 cells transfected with N-SMase2, treated with 2 mM DSP on ice for 1 h, solubilized in 25 mM Tris-HCl pH 7.5, 2 mM EDTA, 0.1% Triton X-100, 137 mM NaCl; immunoprecipitates immunoblotted
# [4] = target: Hsp60, endogenous in HEK293 cells (human (endogenous in HEK293)) (UniProt P10809); experiment: co-IP; lysate of HEK293 cells transfected with N-SMase2, no crosslinker; antibodies against Hsp60 and N-SMase2; N-SMase activity of the immunoprecipitates (data not shown)
# [5] = target: Hsp60, rat brain synaptosomes (rat (endogenous in rat brain)) (UniProt P63039); experiment: co-IP; rat brain synaptosome fraction; anti-Hsp60 and anti-N-SMase2 antibodies; N-SMase activity of the immunoprecipitates
# [6] = target: Hsp60, endogenous in PC12 cells (rat (endogenous in PC12)) (UniProt P63039); experiment: co-IP; PC12 cell lysate, endogenous proteins, with or without N-SMase2 siRNA; antibodies against Hsp60 or N-SMase2; N-SMase activity of the pellets and immunoblot
molecule,measurement,setting,value
"Hsp60, endogenous in HEK293 cells (from UniProt P10809 27-573)",binding,[1],binds
same,binding,[2],binds
"N-SMase2 overexpressed in HEK293 cells (pRC/N-SMase2) (enzyme, UniProt Q9JJY3 1-655) MVLYTTPFPNSCLSALHAVSWALIFPCYWLVDRLLASFIPTTYEKRQRADDPCCLQLFCTVLFTPVYLALLVAALPFAFLGFIFWSPLQSARRPYSYSRLEDKNPAGGAALLSEWKGTGAGKSFCFATANVCLLPDSLARLNNVFNTQARAKEIGQRIRNGAARPQIKIYIDSPTNTSISAASFSSLVSPQGGDGSRAVPGSIKRTASVEYKGDGGRHPSDEAANGPASGEQADGSLEDSCIVRIGGEEGGRPQEADDPAAGSQARNGAGGTPKGQTPNHNQRDGDSGSLGSPSASRESLVKARAGQDSGGSGEPGANSKLLYKTSVVKKAAARRRRHPDEAFDHEVSAFFPANLDFLCLQEVFDKRAAAKLKEQLHGYFEYILYDVGVYGCHGCCNFKCLNSGLFFASRYPVMDVAYHCYPNGCSFDALASKGALFLKVQVGSTPQDQRIVGYIACTHLHAPPEDSAVRCEQLDLLQDWLADFRKSTSSTSTANPEELVVFDVICGDLNFDNCSSDDKLEQQHSLFTRYKDPCRLGPGEEKPWAIGTLLDTNGLYDEDVCTPDNLQKVLESEEGRREYLAFPTSKSPGAGQKGRKDLLKGNGRRIDYMLHAEEGLCPDWKAEVEEFSFITQLSGLTDHLPVAMRLMVSAGEEEA",binding,[3],no binding
same,binding,[4],binds
"N-SMase2, rat brain synaptosomes (enzyme, UniProt O35049 1-655) MVLYTTPFPNSCLSALHAVSWALIFPCYWLVDRLVASFIPTTYEKRQRADDPCYLQLFCTVLFTPVYLALLVAALPFAFLGFIFWSPLQSARRPYSYSRLEDKSPAGGAALLSEWKGTGAGKSFCFATANVCLLPDSLARLNNVFNTQARAKEIGQRIRNGAARPQIKIYIDSPTNTSISAASFSSLVSPQGSDGARAVPGSIKRTASVEYKGDGGRHPSDEAANGPASGEQADGSLEDSCIVRIGGEEGGRAQEADDPAPGSQARNGAGGTPKGQTPNHNQRDGDSGSLGSPSASRESLVKARAGQDSGGSGEPGSNSKLLYKTSVVKKAAARRRRHPDEAFDHEVSAFFPANLDFLCLQEVFDKRAAAKLKEQLHGYFEYILYDVGVYGCHGCCNFKCLNSGLFFASRYPVMDVAYHCYPNGCSFDALASKGALFLKVQVGSTPQDQRIVGYIACTHLHAPPEDSAIRCEQLDLLQDWLADFRKSTSSTSTANPEELVVFDVICGDLNFDNCSSDDKLEQQHSLFTRYKDPCRLGPGEEKPWAIGTLLDINGLYDEDVCTPDNLQKVLESEEGRREYLAFPTSKSPGAGQKGRKDLLKGNGRRIDYMLHAEEGLCPDWKAEVEEFSFITQLSGLTDHLPVAMRLMVSAGEEEA",binding,[5],binds
"N-SMase2, endogenous in PC12 cells (enzyme, UniProt O35049 1-655) MVLYTTPFPNSCLSALHAVSWALIFPCYWLVDRLVASFIPTTYEKRQRADDPCYLQLFCTVLFTPVYLALLVAALPFAFLGFIFWSPLQSARRPYSYSRLEDKSPAGGAALLSEWKGTGAGKSFCFATANVCLLPDSLARLNNVFNTQARAKEIGQRIRNGAARPQIKIYIDSPTNTSISAASFSSLVSPQGSDGARAVPGSIKRTASVEYKGDGGRHPSDEAANGPASGEQADGSLEDSCIVRIGGEEGGRAQEADDPAPGSQARNGAGGTPKGQTPNHNQRDGDSGSLGSPSASRESLVKARAGQDSGGSGEPGSNSKLLYKTSVVKKAAARRRRHPDEAFDHEVSAFFPANLDFLCLQEVFDKRAAAKLKEQLHGYFEYILYDVGVYGCHGCCNFKCLNSGLFFASRYPVMDVAYHCYPNGCSFDALASKGALFLKVQVGSTPQDQRIVGYIACTHLHAPPEDSAIRCEQLDLLQDWLADFRKSTSSTSTANPEELVVFDVICGDLNFDNCSSDDKLEQQHSLFTRYKDPCRLGPGEEKPWAIGTLLDINGLYDEDVCTPDNLQKVLESEEGRREYLAFPTSKSPGAGQKGRKDLLKGNGRRIDYMLHAEEGLCPDWKAEVEEFSFITQLSGLTDHLPVAMRLMVSAGEEEA",binding,[6],binds
